Data published in patent publication US20100093618A1.
Results are given in words; binding and its absence hold for the method and conditions named. In cells and extracts the contact can be indirect. Some results given as binding are weak or reduced against the parent protein; the word gives no strength.

The chains behind the UniProt entries cited, without tags or fusion partners. Where a name states a change or a piece, a line headed by the entry shows the natural chain unless it says otherwise. A line that says so, or that is headed by a name, gives the form on record, which may keep a tag or linker.
UniProt P04608: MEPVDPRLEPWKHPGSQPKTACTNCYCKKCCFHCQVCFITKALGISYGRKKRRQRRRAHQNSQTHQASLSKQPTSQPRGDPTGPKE
UniProt P25963: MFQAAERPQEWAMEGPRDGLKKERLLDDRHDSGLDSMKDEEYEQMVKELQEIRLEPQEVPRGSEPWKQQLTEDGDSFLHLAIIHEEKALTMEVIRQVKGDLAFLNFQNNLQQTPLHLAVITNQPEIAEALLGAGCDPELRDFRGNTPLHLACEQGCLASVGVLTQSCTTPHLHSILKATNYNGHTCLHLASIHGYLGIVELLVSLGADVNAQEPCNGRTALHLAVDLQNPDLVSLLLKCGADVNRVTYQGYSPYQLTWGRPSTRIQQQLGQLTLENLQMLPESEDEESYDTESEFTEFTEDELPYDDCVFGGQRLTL
[35S]methionine-labeled IκB-α 72-287 L(272,274,277)A (in vitro translated) (P25963, form named): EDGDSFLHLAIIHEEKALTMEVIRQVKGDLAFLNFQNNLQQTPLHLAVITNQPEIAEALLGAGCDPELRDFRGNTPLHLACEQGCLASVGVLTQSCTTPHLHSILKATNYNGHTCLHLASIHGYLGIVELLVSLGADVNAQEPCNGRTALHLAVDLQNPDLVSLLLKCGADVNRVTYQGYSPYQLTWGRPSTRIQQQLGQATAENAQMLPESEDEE
[35S]methionine-labeled IκB-α N/C NES (in vitro translated) (P25963, form named): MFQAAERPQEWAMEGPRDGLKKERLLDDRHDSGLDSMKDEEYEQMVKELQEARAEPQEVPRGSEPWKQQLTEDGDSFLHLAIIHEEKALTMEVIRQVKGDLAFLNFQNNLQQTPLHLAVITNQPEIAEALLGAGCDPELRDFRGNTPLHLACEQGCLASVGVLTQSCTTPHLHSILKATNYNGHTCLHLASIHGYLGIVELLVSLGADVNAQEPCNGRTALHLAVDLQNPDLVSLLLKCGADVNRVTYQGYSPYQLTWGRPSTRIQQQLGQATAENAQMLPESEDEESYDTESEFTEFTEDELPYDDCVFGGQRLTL

How the values were obtained:
[1] = target: FLAG-Tat (p3XFLAG-CMV-Tat, wild type) (HIV-1) (UniProt P04608); experiment: GST-IκB-α pulldown from extracts of transfected HeLa cells, anti-FLAG Western blot
[2] = target: GST-Tat (HIV-1) (UniProt P04608); experiment: summary of the GST-Tat pulldown results (FIG. 9A)
[3] = target: GST-Tat (HIV-1) (UniProt P04608); experiment: GST-Tat pulldown of [35S]-labeled in vitro translated protein, autoradiography
[4] = target: GST-Tat (HIV-1) (UniProt P04608); experiment: GST-Tat pulldown from HeLa cell extracts, anti-IκB-α (C-15) Western blot

Substance | binding [3] | further results
GST-IκB-α (from UniProt P25963 1-317) | – | binding [1]: binds
[35S]methionine-labeled IκB-α 1-269 (in vitro translated) (from UniProt P25963 1-269) | binds | binding [2]: binds
[35S]methionine-labeled IκB-α 1-317 (in vitro translated) (from UniProt P25963 1-317) | binds | –
[35S]methionine-labeled IκB-α 72-287 (in vitro translated) (from UniProt P25963 72-287) | binds | –
[35S]methionine-labeled IκB-α 72-287 L(272,274,277)A (in vitro translated) (from UniProt P25963 72-287) | binds | –
[35S]methionine-labeled IκB-α 120-317 (in vitro translated) (from UniProt P25963 120-317) | binds | binding [2]: binds
[35S]methionine-labeled IκB-α 243-317 (in vitro translated) (from UniProt P25963 243-317) | binds | –
[35S]methionine-labeled IκB-α N/C NES (in vitro translated) (from UniProt P25963 1-317) | binds | –
endogenous IκB-α (HeLa cell extracts) (from UniProt P25963 1-317) | – | binding [4]: binds
